Test results taken from paper PMC12519287.

Molecular target: FLAG-PPP1R21 CT (C-terminal truncation of PPP1R21) (human)
Assay: co-IP; HEK293T cells cotransfected with full-length or truncated FLAG-PPP1R21 along with Myc-PP1cs and HA-AEG-1 for 48 h; whole-cell lysates (0.5% CHAPS lysis buffer); IP with the anti-FLAG antibody; immunoblotting with anti-Myc and anti-HA

B1: HA-AEG-1 WT (astrocyte elevated gene-1, HA-tagged) (protein, UniProt Q86UE4 1-582)
chain: MAARSWQDELAQQAEEGSARLREMLSVGLGFLRTELGLDLGLEPKRYPGWVILVGTGALGLLLLFLLGYGWAAACAGARKKRRSPPRKREEAAAVPAAAPDDLALLKNLRSEEQKKKNRKKLSEKPKPNGRTVEVAEGEAVRTPQSVTAKQPPEIDKKNEKSKKNKKKSKSDAKAVQNSSRHDGKEVDEGAWETKISHREKRQQRKRDKVLTDSGSLDSTIPGIENTITVTTEQLTTASFPVGSKKNKGDSHLNVQVSNFKSGKGDSTLQVSSGLNENLTVNGGGWNEKSVKLSSQISAGEEKWNSVSPASAGKRKTEPSAWSQDTGDANTNGKDWGRSWSDRSIFSGIGSTAEPVSQSTTSDYQWDVSRNQPYIDDEWSGLNGLSSADPNSDWNAPAEEWGNWVDEERASLLKSQEPIPDDQKVSDDDKEKGEGALPTGKSKKKKKKKKKQGEDNSTAQDTEELEKEIREDLPVNTSKTRPKQEKAFSLKTISTSDPAEVLVKNSQPIKTLPPATSTEPSVILSKSDSDKSSSQVPPILQETDKSKSNTKQNSVPPSQTKSETSWESPKQIKKKKKARRET
binding: binds

No constants are given. Whether binding was seen depends on the method and setting. Binding seen in cells or lysates may run through a third protein. Binding calls can cover weak binding; strength is not graded here. Tags and fused reporters may be left off the sequences shown.
